Test results reported in patent US20230047027A1, “COMPOSITIONS AND METHODS USING CANNABINOID COMPOUNDS FOR REGULATING GASTRIC ACID SECRETION TO TREAT GASTROESOPHAGEAL REFLUX DISEASE AND RELATED CONDITIONS” (Demetrix, Inc., priority 2021, published 2023).
The name of at least one read-out is uncertain. Some entries repeat one wording, which the source may state once for all of them.

Chains of the proteins cited; added tags and fusions are not shown.
UniProt P25021, whole entry: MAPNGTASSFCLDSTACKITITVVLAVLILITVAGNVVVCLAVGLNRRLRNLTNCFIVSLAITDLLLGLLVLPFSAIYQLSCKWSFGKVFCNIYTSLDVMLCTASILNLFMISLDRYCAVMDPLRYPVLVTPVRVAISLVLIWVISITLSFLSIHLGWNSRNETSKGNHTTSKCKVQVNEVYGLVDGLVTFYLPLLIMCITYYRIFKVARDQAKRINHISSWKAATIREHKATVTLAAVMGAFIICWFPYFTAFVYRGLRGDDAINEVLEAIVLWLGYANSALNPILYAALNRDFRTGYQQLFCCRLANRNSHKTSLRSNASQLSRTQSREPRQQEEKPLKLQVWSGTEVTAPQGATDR

Biological target: H2 receptor (Homo sapiens, UniProt P25021)
Experiment: IC50 antagonist activity screen (PathHunter β-Arrestin GPCR assay)
Assay type: cell-based
Conditions: Table 2
Description: It has additionally been discovered that the alkyl side chain length of cannabinoid compounds can influence the effect the cannabinoid compounds have on the GPCR receptors. For example, it has been discovered that increasing the length of the alkyl side chain, generally increases the antagonism of CBG and CBD to the H2 receptor. […] The RC50 value indicates the value at which the cannabinoid reached the reference compound's 50% effective concentration.
A single assay was run. In each run, PathHunter® cell lines were removed from a freezer stock and seeded at a volume of 20 μL into white walled, 384-well microplates and incubated at 37° C. […] Microplates were read following signal generation with a PerkinElmer Envision™ (PerkinElmer Inc., Waltham, Mass.) for chemiluminescent signal detection. Reactivity was analyzed using the CBIS data analysis suite (ChemInnovation, CA) where RLU refers to the raw measured values. The percent inhibition was calculated using the formula: % Inhibition=100%*(1−mean RLU of test sample−mean RLU of control)/(mean RLU of EC80 control−mean RLU of vehicle control).
Based on the results of the GPCR reactivity screen, and IC50 antagonist activity screen was run against the H2 receptor. […] IC50 curves were measured using the same GPCR assay, PathHunter® β-Arrestin from Eurofins DiscoverX Products (Fremont, Calif.), as the GPCR reactivity screen. […]

Structure (SMILES): C=C(C)[C@@H]1CCC(C)=C[C@H]1c1c(O)cc(CCC)cc1O [CBDV, cannabidivarin]
- antagonistic effect on the H2 receptor in the IC50 data (in words): exhibit an antagonistic effect

Structure (SMILES): CCCCCc1cc(O)c(C/C=C(\C)CCC=C(C)C)c(O)c1 [CBG, cannabigerol]
- antagonistic effect on the H2 receptor in the IC50 data (in words): inhibition was not observed
